No constants are given. Whether binding was seen depends on the method and setting. Some results given as binding are weak or reduced against the parent protein; the word gives no strength.
Key:
[1] = target: aggregated TDP-43 in brain tissue from FTD subjects (human) (UniProt Q13148); experiment: immunofluorescence on 10 µm frozen sections of FTD type A frontal cortex, fluorescent secondary antibody, DAPI for nuclei
[2] = target: aggregated TDP-43 in brain tissue from FTD subjects (human) (UniProt Q13148); experiment: IHC on frozen FTD brain sections

Protein sequences, listed by entry. Tags and fused reporters are not part of them. Lines headed by an entry give the natural chain unless they say otherwise; changes in a name come on top.
UniProt Q13148: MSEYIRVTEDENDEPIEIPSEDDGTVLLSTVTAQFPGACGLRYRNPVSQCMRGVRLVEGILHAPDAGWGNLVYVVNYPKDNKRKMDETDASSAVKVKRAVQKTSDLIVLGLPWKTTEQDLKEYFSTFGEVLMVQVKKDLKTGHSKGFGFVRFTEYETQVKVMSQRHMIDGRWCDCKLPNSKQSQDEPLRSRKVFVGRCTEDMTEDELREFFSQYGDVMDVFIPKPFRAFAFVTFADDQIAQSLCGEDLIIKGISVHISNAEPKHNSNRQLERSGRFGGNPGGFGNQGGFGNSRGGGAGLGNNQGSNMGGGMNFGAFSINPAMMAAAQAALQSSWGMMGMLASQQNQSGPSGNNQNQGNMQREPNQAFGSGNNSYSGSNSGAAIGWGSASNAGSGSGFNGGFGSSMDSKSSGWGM

binding [1] | binding [2] | Binder
binds | binds | ACI-7069-646B7-Ab1 (antibody, IgG2b, V domains shown) VH: QVQLKESGPGLVAPSQSLSITCTVSGFSLTNFGVHWVRQPPGKGLEWLGIMWAGGSTNYNSALMSRLSISKDNSKSQVFLKMNSLQTDDTAMYYCVIYKTGFAYWGQGTLVTVSA VL: DVLMTQTPLSLPVSLGDQASISCRSSQSIVHAIGNTYLEWYLQKPGQSPKLLIYKVSNRFSGVPDRFSGSGSGTDFTLKISRVEAEDLGVYYCFQGSHVPFTFGSGTKLEIK
binds | binds | ACI-7071-809F12-Ab1 (antibody, IgG2b, V domains shown) VH: QVQLKESGPGLVAPSQSLSITCTVSGFSLNRNGVQWVRQPPGKGLEWLGVIWPGGSTNCNSALMSRLSISKDNSKSQVFLKMNSLHTDDTGIYYCARVGGNYVWDYNNYAWGQGTLVTVSA VL: DVLMTQTPLSLPVSLGDQASISCRSSQNIVHSIGNTYLEWYLQKPGQSPKLLIYKVSNRFSGVPDRFSGSGSGTDFTLKISRVEAEDLGVYYCFQGSHVPYTFGGGTKLEIR
binds | binds | ACI-7069-641H1-Ab2 (antibody, IgG2b, V domains shown) VH: QVQLKESGPGLVAPSQSLSITCTVSGFSLTNYGVHWVRQPPGKGLEWLGLMWAGGSTNYNSALMSRLSISKDNSKSQVFLKMNSLQTDDTAMYYCVIYRTGFAYWGQGTLVTVSA VL: DVLMTQTPLSLPVSLGDQASISCRSSQSIVHTIGNTYLEWYLQKPGQSPKLLIYKVSNRFSGVPDRFSGSGSGTDFTLKISRVEAEDLGVYYCFQGSHVPFTFGSGTKLEIK
binds | binds | ACI-7071-809D9-Ab2 (antibody, IgG2b, V domains shown) VH: QVQLQQSGAELVRPGVSVKISCKGSGYKFTDYSMHWVKQSHTKSLEWIGVISTYYGDTTYNQKFKGKATITVDKSSSTAYMELARLTSEDSAIYYCATYGNFPASFSYWGQGTLVTVSA VL: DIVMTQAAPSIPVTPGESVSISCRSSKSLLHSNGNTYLYWFLQRPGQSPQLLIYRMSNLASGVPDRFSGSGSGTAFTLRISRVEAEDVGVYYCMQHLEYPFTFGSGTKLEIK
